22 targets from the supplement of paper PMC12067093, “Discovery and optimisation of a covalent ligand for TRIM25 and its application to targeted protein ubiquitination” (Chemical Science, 2025) can be followed below.

Chains of the proteins cited; added tags and fusions are not shown. Lines headed by an entry give the natural chain unless they say otherwise; changes in a name come on top.
UniProt O00754: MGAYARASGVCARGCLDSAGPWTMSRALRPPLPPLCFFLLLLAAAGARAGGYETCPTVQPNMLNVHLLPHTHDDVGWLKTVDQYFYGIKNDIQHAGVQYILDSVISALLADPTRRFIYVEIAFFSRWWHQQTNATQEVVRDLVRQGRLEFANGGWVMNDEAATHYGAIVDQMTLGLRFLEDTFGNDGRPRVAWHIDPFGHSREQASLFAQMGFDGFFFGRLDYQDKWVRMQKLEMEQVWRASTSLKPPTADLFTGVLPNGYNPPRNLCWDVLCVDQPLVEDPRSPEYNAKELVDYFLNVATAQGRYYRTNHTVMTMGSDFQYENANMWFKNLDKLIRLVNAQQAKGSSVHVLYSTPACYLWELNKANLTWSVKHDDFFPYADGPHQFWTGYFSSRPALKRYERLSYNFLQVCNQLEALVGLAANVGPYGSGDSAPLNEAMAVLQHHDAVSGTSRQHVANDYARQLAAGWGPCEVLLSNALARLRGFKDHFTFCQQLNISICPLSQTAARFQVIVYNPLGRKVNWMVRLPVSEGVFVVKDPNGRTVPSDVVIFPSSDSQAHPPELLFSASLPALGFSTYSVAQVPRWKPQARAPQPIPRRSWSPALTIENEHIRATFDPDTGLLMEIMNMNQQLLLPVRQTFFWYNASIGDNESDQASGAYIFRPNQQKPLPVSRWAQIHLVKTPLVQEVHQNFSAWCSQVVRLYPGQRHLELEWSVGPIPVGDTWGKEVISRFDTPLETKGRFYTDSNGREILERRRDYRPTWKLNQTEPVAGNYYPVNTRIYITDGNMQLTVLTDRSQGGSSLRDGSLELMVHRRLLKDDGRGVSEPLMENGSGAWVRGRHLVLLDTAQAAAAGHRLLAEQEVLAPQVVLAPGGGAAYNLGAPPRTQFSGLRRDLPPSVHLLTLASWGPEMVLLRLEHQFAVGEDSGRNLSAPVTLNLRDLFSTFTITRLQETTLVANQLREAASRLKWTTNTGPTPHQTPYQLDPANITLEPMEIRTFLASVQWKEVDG
UniProt P56192: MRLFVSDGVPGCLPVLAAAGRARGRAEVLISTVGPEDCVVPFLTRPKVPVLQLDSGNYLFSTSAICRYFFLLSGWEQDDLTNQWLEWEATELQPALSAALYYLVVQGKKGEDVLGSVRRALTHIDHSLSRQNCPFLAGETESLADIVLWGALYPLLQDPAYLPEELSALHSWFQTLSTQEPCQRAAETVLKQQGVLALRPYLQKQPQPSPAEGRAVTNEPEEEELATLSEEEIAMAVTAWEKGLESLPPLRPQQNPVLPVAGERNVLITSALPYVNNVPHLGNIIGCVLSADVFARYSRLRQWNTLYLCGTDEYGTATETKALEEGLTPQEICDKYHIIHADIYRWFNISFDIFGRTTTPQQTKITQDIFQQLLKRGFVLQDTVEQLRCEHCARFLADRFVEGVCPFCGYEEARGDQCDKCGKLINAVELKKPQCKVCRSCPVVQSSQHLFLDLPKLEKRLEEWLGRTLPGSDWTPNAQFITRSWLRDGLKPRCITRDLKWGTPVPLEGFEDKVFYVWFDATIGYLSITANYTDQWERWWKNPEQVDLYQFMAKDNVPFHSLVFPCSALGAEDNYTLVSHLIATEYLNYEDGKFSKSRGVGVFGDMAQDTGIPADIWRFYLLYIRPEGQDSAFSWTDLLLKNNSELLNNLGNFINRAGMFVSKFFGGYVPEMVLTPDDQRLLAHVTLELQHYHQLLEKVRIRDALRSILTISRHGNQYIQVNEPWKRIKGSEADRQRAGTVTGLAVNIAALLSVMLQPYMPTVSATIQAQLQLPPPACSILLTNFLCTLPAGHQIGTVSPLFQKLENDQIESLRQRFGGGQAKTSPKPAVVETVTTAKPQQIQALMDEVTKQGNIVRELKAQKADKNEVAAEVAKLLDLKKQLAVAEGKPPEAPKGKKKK
UniProt Q8IWC1: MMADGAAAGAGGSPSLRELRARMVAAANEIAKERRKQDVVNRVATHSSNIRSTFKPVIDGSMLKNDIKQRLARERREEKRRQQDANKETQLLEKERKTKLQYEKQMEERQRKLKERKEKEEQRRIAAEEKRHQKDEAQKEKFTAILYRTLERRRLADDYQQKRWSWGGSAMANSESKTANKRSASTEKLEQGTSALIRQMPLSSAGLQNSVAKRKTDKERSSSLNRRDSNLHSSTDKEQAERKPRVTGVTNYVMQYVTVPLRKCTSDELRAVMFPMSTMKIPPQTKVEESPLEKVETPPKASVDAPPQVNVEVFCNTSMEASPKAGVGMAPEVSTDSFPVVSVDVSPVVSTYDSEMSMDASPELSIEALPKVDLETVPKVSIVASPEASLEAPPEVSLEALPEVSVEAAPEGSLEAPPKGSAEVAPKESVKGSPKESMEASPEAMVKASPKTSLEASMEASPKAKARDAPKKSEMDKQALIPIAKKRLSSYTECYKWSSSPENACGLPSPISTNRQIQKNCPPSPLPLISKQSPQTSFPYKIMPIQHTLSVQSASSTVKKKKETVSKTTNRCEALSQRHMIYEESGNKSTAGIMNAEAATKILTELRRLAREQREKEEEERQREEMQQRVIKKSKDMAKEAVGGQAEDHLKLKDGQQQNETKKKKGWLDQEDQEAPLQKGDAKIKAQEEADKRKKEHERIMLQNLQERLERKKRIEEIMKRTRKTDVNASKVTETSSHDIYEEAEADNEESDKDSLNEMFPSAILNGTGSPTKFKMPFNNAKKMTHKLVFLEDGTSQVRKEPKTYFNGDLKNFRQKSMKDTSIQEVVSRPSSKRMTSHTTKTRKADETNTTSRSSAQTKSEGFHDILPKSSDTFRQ
UniProt O95243: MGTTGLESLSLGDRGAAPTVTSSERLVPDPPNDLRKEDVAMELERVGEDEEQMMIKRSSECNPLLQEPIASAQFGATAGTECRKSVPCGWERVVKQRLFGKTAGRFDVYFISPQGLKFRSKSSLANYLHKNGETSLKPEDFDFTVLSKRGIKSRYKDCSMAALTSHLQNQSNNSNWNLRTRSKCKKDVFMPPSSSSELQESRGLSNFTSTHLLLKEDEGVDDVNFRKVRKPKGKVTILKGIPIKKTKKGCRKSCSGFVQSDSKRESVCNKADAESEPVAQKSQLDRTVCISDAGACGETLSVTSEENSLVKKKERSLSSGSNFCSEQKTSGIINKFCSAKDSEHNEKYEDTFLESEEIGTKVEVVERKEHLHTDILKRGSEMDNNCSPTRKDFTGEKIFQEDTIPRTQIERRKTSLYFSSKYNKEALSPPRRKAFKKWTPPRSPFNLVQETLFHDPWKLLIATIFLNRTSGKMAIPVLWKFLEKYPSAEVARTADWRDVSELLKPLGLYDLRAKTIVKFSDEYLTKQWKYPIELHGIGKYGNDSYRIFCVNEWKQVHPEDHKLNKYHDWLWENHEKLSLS
UniProt Q8IV50: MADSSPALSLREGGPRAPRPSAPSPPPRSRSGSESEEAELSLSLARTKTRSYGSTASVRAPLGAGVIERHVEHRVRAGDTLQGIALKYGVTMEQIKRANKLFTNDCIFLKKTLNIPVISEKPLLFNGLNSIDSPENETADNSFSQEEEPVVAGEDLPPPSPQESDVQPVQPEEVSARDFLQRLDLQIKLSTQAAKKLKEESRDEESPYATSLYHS
UniProt Q9UIS9: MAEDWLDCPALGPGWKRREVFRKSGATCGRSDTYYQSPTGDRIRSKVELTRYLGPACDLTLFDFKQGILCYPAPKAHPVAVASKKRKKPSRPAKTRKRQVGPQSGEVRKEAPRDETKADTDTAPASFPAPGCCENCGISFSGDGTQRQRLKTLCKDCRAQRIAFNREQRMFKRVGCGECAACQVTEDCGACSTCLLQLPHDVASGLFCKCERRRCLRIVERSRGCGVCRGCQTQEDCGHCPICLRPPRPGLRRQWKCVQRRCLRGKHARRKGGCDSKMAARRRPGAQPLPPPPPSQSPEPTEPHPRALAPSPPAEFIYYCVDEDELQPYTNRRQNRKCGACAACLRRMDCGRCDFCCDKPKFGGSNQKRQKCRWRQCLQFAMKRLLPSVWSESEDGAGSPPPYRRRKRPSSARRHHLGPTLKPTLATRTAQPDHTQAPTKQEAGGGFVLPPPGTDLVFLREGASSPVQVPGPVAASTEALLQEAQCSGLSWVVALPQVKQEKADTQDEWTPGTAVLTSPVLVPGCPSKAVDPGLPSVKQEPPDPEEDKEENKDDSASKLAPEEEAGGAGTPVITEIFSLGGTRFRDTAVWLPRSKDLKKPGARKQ
UniProt Q13233: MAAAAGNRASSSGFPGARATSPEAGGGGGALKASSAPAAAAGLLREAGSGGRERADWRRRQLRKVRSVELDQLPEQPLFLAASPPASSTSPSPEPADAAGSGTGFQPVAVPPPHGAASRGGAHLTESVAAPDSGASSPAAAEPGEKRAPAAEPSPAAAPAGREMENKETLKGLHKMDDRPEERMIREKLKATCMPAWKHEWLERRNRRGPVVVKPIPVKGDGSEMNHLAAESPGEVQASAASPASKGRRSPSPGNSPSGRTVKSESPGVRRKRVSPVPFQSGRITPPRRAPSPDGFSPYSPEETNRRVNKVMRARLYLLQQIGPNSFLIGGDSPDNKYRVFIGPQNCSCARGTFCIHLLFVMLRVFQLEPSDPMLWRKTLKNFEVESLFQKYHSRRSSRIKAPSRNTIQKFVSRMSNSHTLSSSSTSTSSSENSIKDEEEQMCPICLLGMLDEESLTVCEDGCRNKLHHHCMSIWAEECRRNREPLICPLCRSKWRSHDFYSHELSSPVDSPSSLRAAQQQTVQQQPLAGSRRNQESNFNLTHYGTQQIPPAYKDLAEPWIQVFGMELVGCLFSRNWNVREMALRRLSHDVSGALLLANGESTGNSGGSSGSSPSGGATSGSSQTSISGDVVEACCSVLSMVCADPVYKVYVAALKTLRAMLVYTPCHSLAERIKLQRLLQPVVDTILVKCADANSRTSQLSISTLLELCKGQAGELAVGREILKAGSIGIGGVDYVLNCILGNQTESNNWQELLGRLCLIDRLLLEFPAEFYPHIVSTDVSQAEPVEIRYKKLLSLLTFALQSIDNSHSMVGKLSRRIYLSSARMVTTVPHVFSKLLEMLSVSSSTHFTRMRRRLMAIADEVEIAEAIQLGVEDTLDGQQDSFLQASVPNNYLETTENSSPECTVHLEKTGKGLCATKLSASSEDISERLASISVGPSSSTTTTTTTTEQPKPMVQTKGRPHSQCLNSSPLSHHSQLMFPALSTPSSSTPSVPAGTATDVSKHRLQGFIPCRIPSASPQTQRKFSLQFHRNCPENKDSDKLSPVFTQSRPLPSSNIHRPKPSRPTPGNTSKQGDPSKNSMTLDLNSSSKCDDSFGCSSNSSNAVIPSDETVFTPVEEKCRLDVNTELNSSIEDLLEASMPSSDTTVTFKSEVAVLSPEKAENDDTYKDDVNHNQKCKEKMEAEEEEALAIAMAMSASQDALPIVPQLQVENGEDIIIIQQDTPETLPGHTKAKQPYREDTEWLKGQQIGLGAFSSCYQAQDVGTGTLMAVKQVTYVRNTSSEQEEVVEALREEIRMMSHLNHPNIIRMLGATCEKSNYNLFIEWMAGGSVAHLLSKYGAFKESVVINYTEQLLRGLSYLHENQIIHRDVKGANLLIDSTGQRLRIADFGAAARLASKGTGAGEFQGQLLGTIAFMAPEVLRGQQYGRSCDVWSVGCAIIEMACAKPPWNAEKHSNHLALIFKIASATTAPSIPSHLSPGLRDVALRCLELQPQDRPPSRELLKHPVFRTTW
UniProt Q9NR56: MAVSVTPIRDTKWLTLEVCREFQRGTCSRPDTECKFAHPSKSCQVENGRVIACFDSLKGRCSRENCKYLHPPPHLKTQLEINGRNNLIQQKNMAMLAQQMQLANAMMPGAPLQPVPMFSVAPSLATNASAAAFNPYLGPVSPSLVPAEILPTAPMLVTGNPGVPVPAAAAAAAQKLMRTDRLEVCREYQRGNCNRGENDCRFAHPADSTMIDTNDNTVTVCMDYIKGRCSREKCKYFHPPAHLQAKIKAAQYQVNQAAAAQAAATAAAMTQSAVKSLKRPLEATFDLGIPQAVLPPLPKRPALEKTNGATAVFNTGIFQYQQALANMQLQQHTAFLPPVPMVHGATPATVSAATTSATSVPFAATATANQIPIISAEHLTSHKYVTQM
UniProt Q5U5X0: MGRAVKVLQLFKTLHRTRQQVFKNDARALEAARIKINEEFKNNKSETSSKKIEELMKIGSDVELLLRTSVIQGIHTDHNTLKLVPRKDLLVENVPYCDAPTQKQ

Some of the results follow.

Compound in this assay: Cc1cc(ccc1-c1ccccc1)C(=O)N1CCCN(CC1)C(=O)CCl [compound 10]
The experiment in a line: probe-labelled cysteine peptide fold change vs DMSO (competition) (log2 fold change); higher = less target engagement (more negative = stronger competition). To be noted: THP-1, incubation time: 4 h.
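Note: competitive profiling in live THP-1 cells: cysteine peptides tagged with an iodoacetamide desthiobiotin (IA-DTB) probe, intensity after compound treatment relative to DMSO-treated cells.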

“MAT2A_P31153_214_VHTIVISVQHDEEVCLDEMRDALK (UniProt P31153)”: the “probe-labelled cysteine peptide fold change” value reads like this: (10 µM) -0.209; (50 µM) -0.294.

For the target “MAN2B1_O00754_472_QLAAGWGPCEVLLSNALAR (UniProt O00754)”, the “probe-labelled cysteine peptide fold change” value amounted to 0.113 (10 µM) and 0.421 (50 µM).

For MARS_P56192_389_CEHCAR (UniProt P56192), the “probe-labelled cysteine peptide fold change” value runs as follows: (10 µM) -0.00939; (50 µM) -0.304.

In the case of “MAP7D3_Q8IWC1_264_CTSDELR (UniProt Q8IWC1)”, the “probe-labelled cysteine peptide fold change” value (10 µM) was -0.104 and the “probe-labelled cysteine peptide fold change” value (50 µM) is -0.466.

“MAT2B_Q9NZL9_263_YEMACAIADAFNLPSSHLRPITDSPVLGAQRPR (UniProt Q9NZL9)”: the “probe-labelled cysteine peptide fold change” value (10 µM) was -0.198 and the “probe-labelled cysteine peptide fold change” value (50 µM) is -0.121.

As for “MBD4_O95243_324_SLSSGSNFCSEQK (UniProt O95243)”, the “probe-labelled cysteine peptide fold change” value (10 µM) was found to be 0.259 and the “probe-labelled cysteine peptide fold change” value (50 µM) was -0.0568.

“MAP1S_Q66K74_975_ALCYVISGQDQR (UniProt Q66K74)”: the “probe-labelled cysteine peptide fold change” value is, setting by setting: (10 µM) -0.121; (50 µM) 0.0479.

Take “LYAR_Q9NX58_9_VFFTCNACGESVK (UniProt Q9NX58)”: the “probe-labelled cysteine peptide fold change” value is 0.115 (10 µM) and 0.165 (50 µM).

Turning to “LYSMD2_Q8IV50_106_LFTNDCIFLK (UniProt Q8IV50)”, the “probe-labelled cysteine peptide fold change” value by setting is: (10 µM) -0.192; (50 µM) -1.77.

Turning to “LYPLA1_O75608_211_TYEGMMHSSCQQEMMDVK (UniProt O75608)”, the “probe-labelled cysteine peptide fold change” value was 0.203 (10 µM) and -0.237 (50 µM).

“MAP3K4_Q9Y6R4_752_LFCDIAGMLLK (UniProt Q9Y6R4)”: the “probe-labelled cysteine peptide fold change” value (10 µM) came to 0.245 and the “probe-labelled cysteine peptide fold change” value (50 µM) came out at 0.479.

“MACF1_Q9UPN3_1522_AYHDLCDGSANQLQQLQSQLAHQTEQK (UniProt Q9UPN3)”: the “probe-labelled cysteine peptide fold change” value is, setting by setting: (10 µM) 0.239; (50 µM) -0.0731.

As to MBD1_Q9UIS9_350_RMDCGR (UniProt Q9UIS9), the “probe-labelled cysteine peptide fold change” value is 0.0601 (10 µM) and -0.0405 (50 µM).

On to “MAP3K1_Q13233_488_NREPLICPLCR (UniProt Q13233)”, for which the “probe-labelled cysteine peptide fold change” value amounted to 0.0962 (10 µM) and 0.286 (50 µM).

Take “MBIP_Q9NS73_243_DCGNQAVEER (UniProt Q9NS73)”: the “probe-labelled cysteine peptide fold change” value is -0.149 (10 µM) and 0.0308 (50 µM).

On to “MACF1_Q9UPN3_3173_HQISSSNECK (UniProt Q9UPN3)”, for which the “probe-labelled cysteine peptide fold change” value was -0.0495 (10 µM) and -0.17 (50 µM).

On to “MAP2K4_P45985_246_LCDFGISGQLVDSIAK (UniProt P45985)”, for which the “probe-labelled cysteine peptide fold change” value by setting is: (10 µM) -0.0625; (50 µM) -0.102.

As to “LYST_Q99698_2965_CYLTIPNK (UniProt Q99698)”, the “probe-labelled cysteine peptide fold change” value by setting is: (10 µM) -0.0985; (50 µM) -0.117.

On to “MBNL1_Q9NR56_185_TDRLEVCR (UniProt Q9NR56)”, for which the “probe-labelled cysteine peptide fold change” value (10 µM) was determined as 0.00019 and the “probe-labelled cysteine peptide fold change” value (50 µM) was -0.0653.

For “MAIP1_Q8WWC4_162_LLSQCK (UniProt Q8WWC4)”, the “probe-labelled cysteine peptide fold change” value runs as follows: (10 µM) -0.148; (50 µM) 0.218.

In the case of “LYRM7_Q5U5X0_97_DLLVENVPYCDAPTQK (UniProt Q5U5X0)”, the “probe-labelled cysteine peptide fold change” value (10 µM) is -0.316 and the “probe-labelled cysteine peptide fold change” value (50 µM) was determined as 0.0174.

Consider “MARS_P56192_408_FVEGVCPFCGYEEARGDQCDK (UniProt P56192)”, for which the “probe-labelled cysteine peptide fold change” value runs as follows: (10 µM) 0.00779; (50 µM) -0.212.
